Data as given in article PMC3050841.
These are yes or no findings as the source states them, for the method shown. Binding calls can cover weak binding; strength is not graded here.

Target: α-actinin from rabbit skeletal muscle (rabbit)
Assay: ELISA; ELISA-based method; no details given; both purified

B1: HAMLET (Human Alpha-lactalbumin Made LEthal to Tumor cells) (protein, UniProt P00709 20-142)
chain: KQFTKCELSQLLKDIDGYGGIALPELICTMFHTSGYDTQAIVENNESTEYGLFQISNKLWCKSSQVPQSRNICDISCDKFLDDDITDDIMCAKKILDIKGIDYWLAHKALCTEKLEQWLCEKL
binding: binds
